Yeast fitness data for 167 variants are collected here from the RNAGym collection of RNA variant scans (doi:10.1126/science.aae0568).

Variants at the background level are over-represented here.

B1: tRNA (parent)
chain: GUUCCGUUGGCGUAAUGGUAACGCGUCUCCCUCCUAAGGAGAAGACUGCGGGUUCGAGUCCCGUACGGAACG

Variants of B1 are the subject of this series. Put plainly: yeast fitness relative to wild type (ratio to wild type); higher = fitter; tRNA-Arg(CCU), competitive growth, 37 C, YPD. Summed up: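 Genotype frequency changes were the basis for Darwinian fitness relative to wild type. The frequencies came from 100-nucleotide paired-end sequencing of gene amplicons from the start population and each end population of pooled yeast strains with tRNA-Arg(CCU) gene variants at the native locus. Competition ran in YPD at 37°C for 24 hours in six replicates, genotypes needed ≥ 100 starting reads, and estimates < 0.5 were set to 0.5.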
In the case of A14G A36G C49G G56C, the yeast fitness was ≤ 0.5.
The figure for U7A A20C U28C A36G G58C is ≤ 0.5; for C22U C34A A70U it is ≤ 0.5.
As to A21C C30G G52C G67U A69U, the yeast fitness is ≤ 0.5.
The figure for C4G C5U C31G G41A A43C C61U G68A is ≤ 0.5; for C5U C11U A36U it is ≤ 0.5.
For G10A G17A A36G A40C C62U, the yeast fitness is ≤ 0.5.
The figure for U3C G9A C11A C30G C46U is ≤ 0.5; for U2A U16C C30A A65U it is ≤ 0.5; for U7C G12C A20C G48A C49G it is ≤ 0.5.
The value for A20U C30G was 0.61; that for G25A U32A U54G G56A was ≤ 0.5; that for U2A C11G U13A G41A was ≤ 0.5.
The figure for A42G G67U is 0.633; for C29U A36U G38A C60A A70G it is ≤ 0.5.
With A14C A21U G25U A42C C55U, the yeast fitness is ≤ 0.5.
The figure for C24U C31U C61A is ≤ 0.5; for A14G U54C A70G it is 0.535; for C11U U28G G51C U64A C66U A69C it is ≤ 0.5.
The figure for C4U C33U is 0.789; for A43G A57G G67A A70U it is ≤ 0.5.
A20G C22A C29G: the yeast fitness is ≤ 0.5.
The value for A15G G63A was 0.926.
The figure for U28C A45U C55A C66A is ≤ 0.5; for G51A G52C C66A it is ≤ 0.5.
The figure for G25A C34G C49U U54C C60G is ≤ 0.5; for U7A C34A G44A C46U it is ≤ 0.5.
Take A14C G58A: the yeast fitness was found to be 0.868.
The figure for C5U C31U C34U is ≤ 0.5.
The figure for C29G C30U G58A is 0.608.
With U8C G38C C55U, the yeast fitness is ≤ 0.5.
The value for G9A G52A was 0.687; that for A14C C30A C31G A65U was ≤ 0.5.
For the variant G17C A20C C60U C61U, the yeast fitness is ≤ 0.5.
For the variant U3G C5A C46A, the yeast fitness was ≤ 0.5.
The value for C5G C49G G51A was ≤ 0.5; that for G18A A21C G23U U32A A42U G48C U64A was 0.529; that for U3A U35A C49U was ≤ 0.5.
The value for C33U G56A C61G C66U was ≤ 0.5.
The value for C5G C33U C34U G38A G51A C55A A65U was ≤ 0.5.
Take U8A A40G C55G: the yeast fitness was ≤ 0.5.
The figure for G9C G18C C33A C34G A45G is ≤ 0.5.
Take U13G A36G G38A A70C: the yeast fitness was ≤ 0.5.
On to G17A C22A G25A G51A A69U A70G, for which the yeast fitness is ≤ 0.5.
The figure for U7G G41A C49A C66A is ≤ 0.5; for A20C G50A A57U A70U it is ≤ 0.5; for G9C A14G C34U U64A it is ≤ 0.5.
The figure for U7A A14C G25A C30G is ≤ 0.5; for C29G G68C A70U it is ≤ 0.5.
The value for C22A C24A U26C G68A was ≤ 0.5.
In the case of G6A U8C A14C G68C, the yeast fitness is ≤ 0.5.
For U8A C22U G48C G68A, the yeast fitness was ≤ 0.5.
The figure for C5U U53C A57G C66U is ≤ 0.5.
The value for U28G C60G C61G was ≤ 0.5; that for G12C A21G C27U C33A A45C U54A was ≤ 0.5; that for G6C C24U U47C C49U G56C was ≤ 0.5.
The value for G12A C33A A36C A65C was ≤ 0.5; that for C11U C24G C27G A69C was ≤ 0.5; that for C24G A40U A57U G63A was ≤ 0.5.
For C11A C24G C49U A69C, the yeast fitness was ≤ 0.5.
The figure for C5G G23C A36C is ≤ 0.5; for C4G G6A G23A A43G A69C it is ≤ 0.5; for U8A C34U C49U C60U it is ≤ 0.5.
The figure for G18C C29G A36C G44C G50A C66A is ≤ 0.5.
The figure for G25C A40C C66A is ≤ 0.5.
As for U2C C11A G41C C61A, the yeast fitness was ≤ 0.5.
The value for A21G A43C was 0.966.
The figure for C5G G9C G48A A57U A69U is ≤ 0.5; for U3C C4U A15G U26A U32A C62U G67C it is 0.613; for C4G A20C C22U A43U A69C it is ≤ 0.5.
The figure for U16C C24U C33U C66U is ≤ 0.5.
For U3A A20G G56C, the yeast fitness is ≤ 0.5.
The figure for C24A C27G G56A is ≤ 0.5; for G10A A20U A42G C60U U64A C66A G68A A69G it is ≤ 0.5; for U28G C30G it is ≤ 0.5.
The value for C4G U16C U28A A42G C55A C66A was ≤ 0.5; that for A42C U47C G58C was 0.644.
The figure for U2A U13G A40C G41C A57G G63C A65U is ≤ 0.5.
Regarding U13C C30U G41A A45G, the yeast fitness was ≤ 0.5.
The figure for U19A A36G C55A G56C is ≤ 0.5.
The figure for C24G G50A C55U A69C A70U is ≤ 0.5; for G10A U13A C24A A57U C61U it is ≤ 0.5; for G12A G18A C49A A65U it is ≤ 0.5.
The figure for U28G C55A C60U is ≤ 0.5; for C5G A37G C46G A57C it is ≤ 0.5.
On to C24G C33G C55G A70C, for which the yeast fitness was ≤ 0.5.
The figure for C4G G48A U59C is ≤ 0.5; for U3C A20G C33U A40G C62G A70U it is ≤ 0.5; for C29G G38A G44A C46U C62G it is ≤ 0.5.
U2G U28A C62G: the yeast fitness is ≤ 0.5.
The figure for U8C C34G A57G A65G C66U is ≤ 0.5; for G41C C49A G67A it is ≤ 0.5; for A15G A43G it is 0.975.
For G6C C24G C29G G39C C55A, the yeast fitness was ≤ 0.5.
The value for U13G A40U G44C A57C was ≤ 0.5.
On to A15G G17A C33U G39C C55A C66U G67C, for which the yeast fitness was ≤ 0.5.
The value for G6C C22A A57U was ≤ 0.5; that for U8C A14G A42C A43U U59A C62G A65U was ≤ 0.5.
The figure for C11G A36C A37G G56A is ≤ 0.5; for U26A U32A C62U G67C it is ≤ 0.5.
A42C U53A G56C: the yeast fitness was ≤ 0.5.
For the variant U53A C62A C66U, the yeast fitness was ≤ 0.5.
The figure for G18C C24A A36U is ≤ 0.5; for G6C C11U A21C C46G A65G it is ≤ 0.5.
The value for C27G A42C G63C was ≤ 0.5; that for C11U C27U A45C G56C was ≤ 0.5.
The value for C27G G52C U54C was ≤ 0.5; that for C29G C33U U47A G51A C61U was ≤ 0.5; that for C4U A20C C30A C55A G67A was 0.53.
For U7C U8G C30U C49A, the yeast fitness is ≤ 0.5.
The value for A20C G38C A43U A45G was ≤ 0.5.
The figure for C4G U26A C49U is ≤ 0.5; for G6C G17A C30U A42C G50A it is ≤ 0.5.
The value for A57C C60U G67C was ≤ 0.5.
Take C5G U47C C66U: the yeast fitness came to 0.627.
The figure for A20G C49A G56C G68C is ≤ 0.5.
On to C4U C24U C27U C30A G58A A70G, for which the yeast fitness is ≤ 0.5.
The figure for U8G G17A A20C C22G C29G C34G G68A is 0.606.
The figure for C5U G17C A21U A40G U47G G48C is ≤ 0.5.
For U7A A21G U28A C29U, the yeast fitness was ≤ 0.5.
The value for G9C G12A U35C C49U was ≤ 0.5; that for C34G G67A A70C was ≤ 0.5; that for C5U U26A G48A A70U was ≤ 0.5.
The value for U8A U13A A14C G56C was ≤ 0.5.
On to U8C G41A A65G, for which the yeast fitness was found to be 0.63.
Turning to C5A U26A A40G, the yeast fitness was ≤ 0.5.
Consider C24U C29U C55U, for which the yeast fitness was ≤ 0.5.
The figure for A36U G39A is 0.657; for A15C A20G A36U it is ≤ 0.5; for C11A C66A it is ≤ 0.5.
The figure for A15C G23A C24G C46G is ≤ 0.5; for C11A U16C U32G A65G it is ≤ 0.5; for C4A A20G it is 0.859.
The value for A21U A37C G50C was ≤ 0.5.
For C29G C31A C55U A70U, the yeast fitness was ≤ 0.5.
The figure for C11G A20G G58A is ≤ 0.5; for G10C G23C C30A G48C G52C A57C G58A it is ≤ 0.5.
The figure for A15C U28A A69U is ≤ 0.5.
The figure for G9A A36U G39A A69U is ≤ 0.5; for C24G U54C it is ≤ 0.5; for A14C U19C A20G G67A it is ≤ 0.5.
Take U2A C4A U13C C31A C49G A57G: the yeast fitness is ≤ 0.5.
The value for C29G C30G A57U G58A A70G was ≤ 0.5; that for C29U A37C A40G was ≤ 0.5; that for G25C A37U G63A was ≤ 0.5.
The figure for U8A A20C A21G C27G C60G is ≤ 0.5; for C5U C22G A36C A57U C61A C66G it is ≤ 0.5; for U2C C4U G10C U47A A57C A70C it is ≤ 0.5.
Turning to C22G C24G C27G C60U, the yeast fitness was ≤ 0.5.
The figure for A14G C27U U47A G63A is ≤ 0.5; for A15G U35C A45G C49G G56A A65C it is ≤ 0.5.
For A42C U47C G63A, the yeast fitness came to 0.692.
The figure for G6A A15C A20U A57U is ≤ 0.5.
On to C34U U35G G38A G51C A69U, for which the yeast fitness is ≤ 0.5.
The value for U13C A15U C46A C66U was ≤ 0.5; that for A21G G51C G68C was ≤ 0.5; that for C11G A36U C46G C62A A69C was ≤ 0.5.
The figure for C22U C29U G41A C55U C61A is ≤ 0.5.
Take G9A C29G C66U A70C: the yeast fitness is ≤ 0.5.
The figure for C29U A42U C49U G50U is ≤ 0.5.
The figure for C24G C27U C55G is ≤ 0.5.
The figure for U13A C30U C55G G58C C66U is ≤ 0.5.
On to C27G C31G C33U G58C C60U C66G, for which the yeast fitness was ≤ 0.5.
With A14C A45C U47C G50A, the yeast fitness is ≤ 0.5.
For A20C G38A G41A G52A, the yeast fitness is ≤ 0.5.
The value for C4A G17U C46A was 0.645.
For the variant G41C G48C A69C, the yeast fitness worked out at 0.606.
